The target of the test is T1, overexpressed CEP90 (UniProt Q8WXW3).
T1 sequence: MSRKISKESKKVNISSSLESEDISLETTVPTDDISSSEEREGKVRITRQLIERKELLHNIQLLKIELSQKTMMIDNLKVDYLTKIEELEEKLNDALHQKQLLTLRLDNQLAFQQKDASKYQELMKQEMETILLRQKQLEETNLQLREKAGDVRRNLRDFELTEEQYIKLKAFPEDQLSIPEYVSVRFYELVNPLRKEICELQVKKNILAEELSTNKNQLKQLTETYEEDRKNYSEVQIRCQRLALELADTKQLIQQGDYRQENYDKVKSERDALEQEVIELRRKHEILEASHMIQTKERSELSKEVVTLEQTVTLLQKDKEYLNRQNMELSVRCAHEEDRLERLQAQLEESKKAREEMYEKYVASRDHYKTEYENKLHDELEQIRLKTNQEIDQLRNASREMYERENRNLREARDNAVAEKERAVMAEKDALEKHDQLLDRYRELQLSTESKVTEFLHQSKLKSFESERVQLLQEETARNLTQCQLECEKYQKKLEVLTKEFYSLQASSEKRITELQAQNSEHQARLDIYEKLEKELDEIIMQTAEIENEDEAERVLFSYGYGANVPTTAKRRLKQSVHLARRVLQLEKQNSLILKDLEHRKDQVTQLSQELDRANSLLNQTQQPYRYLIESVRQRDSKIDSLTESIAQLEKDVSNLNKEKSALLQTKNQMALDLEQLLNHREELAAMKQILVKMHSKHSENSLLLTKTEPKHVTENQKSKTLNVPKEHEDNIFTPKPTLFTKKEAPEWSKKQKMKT
Put plainly: microtubule recruitment.

These are yes or no findings as the source states them, for the method shown. Some results given as binding are weak or reduced against the parent protein; the word gives no strength.

B1: endogenous CEP83 (protein, UniProt Q9Y592 1-701)
chain: MVVSTFTDMDTFPNNFPPGGDSGLTGSQSEFQKMLIDERLRCEHHKANYQTLKAEHTRLQNEHVKLQNELKHLFNEKQTQQEKLQLLLEELRGELVEKTKDLEEMKLQILTPQKLELLRAQIQQELETPMRERFRNLDEEVEKYRAVYNKLRYEHTFLKSEFEHQKEEYARILDEGKIKYESEIARLEEDKEELRNQLLNVDLTKDSKRVEQLAREKVYLCQKLKGLEAEVAELKAEKENSEAQVENAQRIQVRQLAEMQATVRSLEAEKQSANLRAERLEKELQSSSEQNTFLINKLHKAEREINTLSSKVKELKHSNKLEITDIKLETARAKSELERERNKIQSELDGLQSDNEILKAAVEHHKVLLVEKDRELIRKVQAAKEEGYQKLVVLQDEKLELENRLADLEKMKVEHDVWRQSEKDQYEEKLRASQMAEEITRKELQSVRLKLQQQIVTIENAEKEKNENSDLKQQISSLQIQVTSLAQSENDLLNSNQMLKEMVERLKQECRNFRSQAEKAQLEAEKTLEEKQIQWLEEKHKLHERITDREEKYNQAKEKLQRAAIAQKKRKSLHENKLKRLQEKVEVLEAKKEELETENQVLNRQNVPFEDYTRLQKRLKDIQRRHNEFRSLILVPNMPPTASINPVSFQSSAMVPSMELPFPPHMQEEQHQRELSLLRKRLEELETTQRKQLEELGSSGE
Turning to B1, the binding result is recorded as “binds”.

(Values after article doi:10.1101/2021.07.13.452210.)
